The text below walks through data of doi:10.1101/2024.04.25.591189.

What all share (assay): co-IP
In assay [1] the target is Mei5-K95L (S. cerevisiae).
Assay [2] deals with Mei5-R97L (S. cerevisiae).
Assay [3] addresses Mei5-W96A (S. cerevisiae).

Results are given in words; binding and its absence hold for the method and conditions named. In cells and extracts the contact can be indirect. For part of these data: Binding calls can cover weak binding; strength is not graded here. Tags and fused reporters may be left off the sequences shown.

B1: Sae3-Flag (protein, UniProt P89114 1-91)
chain: MNYLETQLNKKQKQIQEYESMNGNLIKMFEQLSKEKKNDETPKKISSTYIKELKEYNELRDAGLRLAQIIADEKQCKIKDVFEEIGYSMKD
As for B1, the binding result in assay [1] was “binds”; in assay [2], “no binding”; in assay [3] it was “binds”.
